Test results published in PubChem BioAssay AID504327 (National Center for Advancing Translational Sciences (NCATS), 2011).
Where “and” joins values, the source holds several entries; their conditions need not be identical. Equal entries are not always repeated. Screen size: about 390,000 compounds; about 820 (0.21%) were called active. Inconclusive results, whose numbers are uncertain, are shown with a selection of clear calls. The call rests on the fitted dose curve; in most records, active means well fitted inhibition curve with a large enough effect; inconclusive means small, poorly fitted or top-dose-only effect, or another doubt; inactive means no such curve, though single readings can be large or run the other way. A potency beside an inconclusive call is a rough fit, not a confirmed value.

The chains behind the UniProt entries cited, without tags or fusion partners.
UniProt Q92830, whole entry, looked up: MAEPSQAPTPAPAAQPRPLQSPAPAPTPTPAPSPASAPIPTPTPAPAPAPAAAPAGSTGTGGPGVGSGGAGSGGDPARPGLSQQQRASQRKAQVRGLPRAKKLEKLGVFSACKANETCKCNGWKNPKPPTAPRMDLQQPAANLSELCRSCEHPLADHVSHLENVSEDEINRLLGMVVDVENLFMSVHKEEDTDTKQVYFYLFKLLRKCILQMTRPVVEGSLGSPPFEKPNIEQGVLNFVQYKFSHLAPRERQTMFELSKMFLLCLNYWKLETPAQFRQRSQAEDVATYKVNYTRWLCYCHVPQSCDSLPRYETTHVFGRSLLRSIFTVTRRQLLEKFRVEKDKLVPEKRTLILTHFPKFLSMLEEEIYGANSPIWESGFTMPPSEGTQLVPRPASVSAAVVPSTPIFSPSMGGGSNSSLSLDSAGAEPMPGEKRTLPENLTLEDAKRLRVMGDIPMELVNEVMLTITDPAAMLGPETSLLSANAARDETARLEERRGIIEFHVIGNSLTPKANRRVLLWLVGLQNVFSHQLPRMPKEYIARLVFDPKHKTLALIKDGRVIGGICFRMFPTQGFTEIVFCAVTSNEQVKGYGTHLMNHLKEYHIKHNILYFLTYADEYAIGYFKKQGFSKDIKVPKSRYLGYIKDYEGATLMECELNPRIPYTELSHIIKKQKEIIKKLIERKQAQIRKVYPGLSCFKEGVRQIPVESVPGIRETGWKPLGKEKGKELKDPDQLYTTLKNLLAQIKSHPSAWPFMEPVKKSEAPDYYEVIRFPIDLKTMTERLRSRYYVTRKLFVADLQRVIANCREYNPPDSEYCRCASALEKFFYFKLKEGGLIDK

These molecules were tested against Histone acetyltransferase KAT2A (Homo sapiens) (UniProt Q92830) (assay: qHTS Assay for Inhibitors of GCN5L2). Details: GCN5L2 HAT assay, ThioGlo1 CoA-SH fluorescence; activity change, negative = inhibition: at 58.9 µM (top of the series) unless noted.
Method in brief: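 Free CoA generated was detected with ThioGlo1 (50uM) fluorescence at Ex340nm/Em540nm, read immediately and after 20 min at room temperature. Enzyme, 20 nM in HEPES pH 7.5 buffer, saw compounds 15 min before adding 75uM H3(1-25) peptide and 70uM acetyl-CoA.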
On the % scale 0 is the no-effect control and ±100 the full control effect; potency means the concentration at half of the fitted maximal effect.

SMILES	Potency	activity change, negative = inhibition
O=Cc1cn(Cc2ccc([N+](=O)[O-])cc2)c2ccccc12	inconclusive: 39.8 µM [inhibitor, single point]	–
O=C(O)c1ccccc1-c1c2cc(Br)c(=O)cc-2oc2[c]([Hg])c(O)c(Br)cc12	active: 3.16 µM and inconclusive: 20 µM [inhibitor, partial curve]	–
CCOP(=O)(OCC)C(C)(C)NC(=O)C(Cl)(Cl)Cl	inconclusive: 0.708 µM [inhibitor, single point]	–
COc1ccc(NC(=O)c2ccc(COCC(F)(F)C(F)F)cc2)cc1	inactive	–
CCSc1nnc(C(N)Cc2ccccc2)o1 (stereo not drawn)	inconclusive: 0.794 µM [inhibitor, single point]	–
Cn1ccnc1P(=S)(c1nccn1C)N1CCOCC1	inactive	–
Oc1cc[c]([Hg][Cl])cc1	active: 0.141 µM	–
O=C1C(I)=CC(=C(c2cc(I)c(O)c(I)c2)c2ccccc2C(=O)O)C=C1I	active: 3.55 µM	–
CN1C(C(=O)NCc2cccc(C(F)(F)F)c2)CC2Cn3c(nc4cc5ccccc5cc43)C21 (stereo not drawn)	inconclusive: 1.78 µM [inhibitor, full curve, poor fit]	–
O=[N+]([O-])c1ccc(N2CCNCC2)cc1NCC1CCCO1 (stereo not drawn)	inconclusive: 0.141 µM [inhibitor, full curve, poor fit]	–
O=c1[nH]c(CN2CC=C(c3ccccc3)CC2)nc2scc(-c3ccccc3)c12	inconclusive: 39.8 µM [inhibitor, single point]	–
O=S(=O)(c1ccccc1)N1CCCCC1c1cccnc1 (stereo not drawn)	inconclusive: 15.8 µM [inhibitor, partial curve]	–
CCC(C)C(=O)c1c(O)c(C)c2oc3c(C)c(O)c(C(=O)C(C)CC)c(O)c3c2c1O (stereo not drawn)	inconclusive: 39.8 µM [inhibitor, single point]	–
COc1cc(Br)cc(CN2CCN(C)CC2)c1O	inconclusive: 3.98 µM [inhibitor, partial curve]	–
CC1=NCCc2c1[nH]c1cc(O)ccc21	inconclusive: 7.94 µM [inhibitor, partial curve] and inconclusive: 31.6 µM [inhibitor, partial curve] and inconclusive: 39.8 µM [inhibitor, single point]	–
O=C(NC(Oc1ccccc1)C(Cl)(Cl)Cl)c1ccccc1 (stereo not drawn)	inconclusive: 0.794 µM [inhibitor, single point]	–
COc1cc(CN=C(C)c2c(O)n(C3CCCCC3)c(=O)[nH]c2=O)cc(OC)c1	inconclusive: 31.6 µM [inhibitor, single point]	–
O=C1C=CC(=O)c2c(O)cccc21	active: 2.24 µM and active: 631 nM	–
CNCCc1ccc(O)c(O)c1	inactive	–
Oc1cc2c(cc1O)[C@H]1c3ccccc3CN[C@@H]1CC2	inactive	–
COc1c2c(c(CC=C(C)C)c3oc(=O)c(-c4ccc(O)cc4)c(O)c13)OC(C)(C)C=C2	inconclusive: 35.5 µM [inhibitor, single point]	–
COc1c(/C=C2/C(=O)NC(=O)N(C)C2=O)c(CCN(C)C(=O)c2ccccc2)cc2c1OCO2	inactive	–
Cc1[nH]c2ccc(OCc3ccccc3)cc2c1CCN	inactive	–

SMILES	Potency	activity change, negative = inhibition
CCOc1ccc2c3c1O[C@H]1[C@@H](O)C=C[C@H]4[C@@H](C2)N(C)CC[C@@]341	inactive	–
C=CC[C@]1(O)CC[C@H]2[C@@H]3CCC4=CC(=O)CCC4=C3C=C[C@@]21C	inactive	–
CCOC(=S)SSC(=S)OCC	inconclusive: 28.2 µM [inhibitor, single point]	–
CC(C)(C)OC(=O)C(Br)CCBr (stereo not drawn)	inconclusive: 0.158 µM [inhibitor, full curve, poor fit]	–
CCOC(=O)c1ccc(N2C(=O)CC(N3CC=C(c4ccc(F)cc4)CC3)C2=O)cc1 (stereo not drawn)	inconclusive: 39.8 µM [inhibitor, single point]	–
CN1C(=O)C(=Cc2ccc(N3CCCCCC3)o2)C(=O)N(C)C1=S	inactive	–
CCCn1cc2c3c(cccc31)C1CC(C)CN(C)C1C2 (stereo not drawn)	inconclusive: 0.501 µM [inhibitor, single point]	–
CCCCCC1C(=O)O[C@H](C)[C@@H](NC(=O)c2cccc(NC=O)c2O)C(=O)OC(C)C1OC(=O)CC(C)C (stereo partly drawn)	inconclusive: 39.8 µM [inhibitor, single point]	–
CC(C)c1ccc(N2C(=O)NC(=O)/C(=C\C=C\c3ccco3)C2=O)cc1	inconclusive: 20 µM [inhibitor, partial curve]	–
CCCCCCNC(=O)N[C@H](Cc1ccc(O)cc1)C(=O)NCCC[C@H]1CN2C(=NC[C@H]2CCC)N1CC1CCC1	inconclusive: 39.8 µM [inhibitor, single point]	–
Nc1c([N+](=O)[O-])ccc(Oc2ccccc2)c1Cl	inactive	–
C[C@]12CC[C@@H](O)C[C@@H]1CC[C@@H]1[C@@H]2CC[C@]2(C)C(=O)CC[C@@H]12	inconclusive: 8.91 µM [inhibitor, single point]	–
O=C(O)c1ccccc1O	inconclusive: 11.2 µM [inhibitor, partial curve]	–
Cc1ccc(/C=C2\C(=O)NC(=S)N(c3ccc(F)cc3)C2=O)o1	inconclusive: 35.5 µM [inhibitor, single point]	–
COc1ccc(-n2c(O)c(/C(C)=N/Nc3ccccc3)c(=O)[nH]c2=O)cc1	inconclusive: 31.6 µM [inhibitor, single point]	–
CC1=CC(=O)c2c(O)cccc2C1=O	inconclusive: 39.8 µM [inhibitor, single point]	–
CC(C)=CCOc1c2occc2cc2ccc(=O)oc12	inactive	–
CCOc1cccc(N2C(=O)/C(=C/c3ccco3)C(=O)NC2=S)c1	inconclusive: 31.6 µM [inhibitor, partial curve]	–
COc1ccc(-c2oc3cc(OC)ccc3c(=O)c2O)cc1	inconclusive: 28.2 µM [inhibitor, partial curve]	–
CN1C(=O)C(=Cc2sc(=O)n(-c3ccccc3)c2N(C)C)C(=O)N(C)C1=O	inactive	–
CC(C)N(CCC(C(N)=O)(c1ccccc1)c1ccccn1)C(C)C (stereo not drawn)	inconclusive: 39.8 µM [inhibitor, single point]	–
COc1ccc(CN2C(=O)NC(=O)/C(=C\c3ccco3)C2=O)cc1	inconclusive: 39.8 µM [inhibitor, single point]	–
CCCc1cc(=O)oc2c3c(cc(OCC(=O)N[C@@H](C)C(=O)O)c12)OC(C)(C)CC3	inconclusive: 17.8 µM [inhibitor, partial curve, poor fit]	–

SMILES	Potency	activity change, negative = inhibition
Cc1cccc(C(=O)Nc2ccc3c(c2)CC2(C(=O)N(C)C(=O)N(C)C2=O)C2CCCN32)c1 (stereo not drawn)	inconclusive: 0.708 µM [inhibitor, full curve, poor fit]	–
N#Cc1ccc(CN2CC[C@@]3(CCCNC3)C2)cc1	inactive	–
Ic1ccccc1CN[C@@H]1C2CCN(CC2)[C@@H]1C(c1ccccc1)c1ccccc1	inactive	–
CCCCN1C(=O)/C(=C\c2ccco2)C(=O)N(CCc2ccccc2)C1=O	active: 39.8 µM	–
C[C@@H]1CC[C@H]2[C@@H](C)C(=O)O[C@@H]3OC4(C)CC[C@@H]1C32OO4 (stereo partly drawn)	inactive	–
N#C/C(=C(/O)c1ccc(S(=O)(=O)N(CCCl)CCCl)cc1)c1nc2ccccc2[nH]1	inconclusive: 0.126 µM [inhibitor, full curve, poor fit]	–
CCCCN1C(=O)C(C2c3ccccc3C(=O)N2Cc2ccccc2)C(=O)NC1=S (stereo not drawn)	inconclusive: 25.1 µM [inhibitor, single point]	–
CCCCCCCCCCCCCCCCOC[C@@H](COP(=O)([O-])OCC[N+](C)(C)C)OC(C)=O	inactive	–
CCN1CCCC(OC(=O)C(c2ccccc2)c2ccccc2)C1 (stereo not drawn)	inconclusive: 39.8 µM [inhibitor, single point]	–
COc1ccc(CN2C(=O)NC(=O)/C(=C/c3ccc([N+](=O)[O-])s3)C2=O)cc1	inconclusive: 31.6 µM [inhibitor, single point]	–
COc1cc(C(c2c(O)c3ccccc3oc2=O)c2c(C)n(C)n(-c3ccccc3)c2=O)ccc1OCC(=O)O (stereo not drawn)	inactive	–
CC1Oc2cc3c(-c4c(O)cc(O)c5c(O)c6c(cc45)OC(C)C(C)C6=O)c(O)cc(O)c3c(O)c2C(=O)C1C (stereo not drawn)	active: 25.1 µM	–
COc1ccc(-[n+]2c(-c3ccccc3)cc(-c3ccc(C)cc3)cc2-c2ccccc2)cc1	inactive	–
CC(C)OCCCNC(=O)c1c(N)n(CC2CCCO2)c2nc3ccccc3nc12 (stereo not drawn)	inconclusive: 39.8 µM [inhibitor, single point]	–
O=[N+]([O-])c1cc(O)c(O)c([N+](=O)[O-])c1	inconclusive: 39.8 µM [inhibitor, single point]	–
CN1C(=O)C(=Cc2cn(CC(=O)N3CCCC3)c3ccccc23)C(=O)N(C)C1=O	inactive	–
COC(=O)C1=C(c2ccc(Cl)c(C(F)(F)F)c2)C[C@@H]2CC[C@H]1N2C(=O)NCCO	inactive	–
O=C(c1cccn2c(=O)c3cc(Br)ccc3nc12)N1CCC2(CC1)OCCO2	–	inconclusive: -67.8% [inhibitor]
CCN1CCN(c2nc3c(c(=O)[nH]2)CCC3)CC1	inconclusive: 8.91 µM [inhibitor, partial curve]	–
c1cnc(N2CC[C@@]3(CCCNC3)C2)nc1	inactive	–
COc1ccc(NC(=O)O/N=C/c2ccccc2)cc1	inconclusive: 15.8 µM [inhibitor, partial curve]	–
CCC(=Nc1cc(OC)ccc1OC)c1c(O)[nH]c(=O)[nH]c1=O	inconclusive: 0.794 µM [inhibitor, single point]	–

Entries from the list above that have a cyano group, in the order listed:
SMILES	Potency	activity change, negative = inhibition
N#Cc1ccc(CN2CC[C@@]3(CCCNC3)C2)cc1	inactive	–
N#C/C(=C(/O)c1ccc(S(=O)(=O)N(CCCl)CCCl)cc1)c1nc2ccccc2[nH]1	inconclusive: 0.126 µM [inhibitor, full curve, poor fit]	–

3 entries from above, as labelled records.
O=[N+]([O-])c1cc(O)c(O)c([N+](=O)[O-])c1
  Potency: inconclusive: 39.8 µM [inhibitor, single point]
CN1C(=O)C(=Cc2cn(CC(=O)N3CCCC3)c3ccccc23)C(=O)N(C)C1=O
  Potency: inactive
COC(=O)C1=C(c2ccc(Cl)c(C(F)(F)F)c2)C[C@@H]2CC[C@H]1N2C(=O)NCCO
  Potency: inactive
